# Results published in article PMC10432976.
# The chains behind the UniProt entries cited, without tags or fusion partners.
# UniProt Q91WK0: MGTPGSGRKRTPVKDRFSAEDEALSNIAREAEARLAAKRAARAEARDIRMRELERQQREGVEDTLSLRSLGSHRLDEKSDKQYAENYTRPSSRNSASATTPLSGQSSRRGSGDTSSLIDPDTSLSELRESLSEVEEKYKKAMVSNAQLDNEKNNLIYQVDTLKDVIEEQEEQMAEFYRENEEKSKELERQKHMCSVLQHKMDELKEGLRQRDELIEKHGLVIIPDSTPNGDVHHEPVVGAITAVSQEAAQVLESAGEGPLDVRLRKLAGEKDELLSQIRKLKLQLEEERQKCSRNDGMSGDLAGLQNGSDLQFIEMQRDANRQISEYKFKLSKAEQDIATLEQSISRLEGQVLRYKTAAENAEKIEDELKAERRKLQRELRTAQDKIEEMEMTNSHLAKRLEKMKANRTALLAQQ
# These are yes or no findings as the source states them, for the method shown. Binding seen in cells or lysates may run through a third protein. A yes stands for co-enrichment or nearness to the bait. Other partners may have been found. Sequences can lack the tags named with a protein.
# T1: Flag-TRB3 (expressed in Min6 cells) (UniProt Q8K4K2)
# T1 sequence: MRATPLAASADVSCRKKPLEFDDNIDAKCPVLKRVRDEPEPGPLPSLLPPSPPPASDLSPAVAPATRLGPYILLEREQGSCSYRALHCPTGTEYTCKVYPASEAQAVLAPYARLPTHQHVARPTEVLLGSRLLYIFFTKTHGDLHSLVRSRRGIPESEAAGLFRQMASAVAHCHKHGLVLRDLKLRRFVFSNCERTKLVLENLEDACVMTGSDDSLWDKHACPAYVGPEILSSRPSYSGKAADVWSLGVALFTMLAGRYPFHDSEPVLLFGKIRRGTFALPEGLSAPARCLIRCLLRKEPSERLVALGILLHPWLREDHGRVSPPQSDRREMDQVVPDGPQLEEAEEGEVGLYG
# T2: Myc-APEX2-TRB3 (UniProt Q8K4K2)
# T2 sequence: T1 sequence
# B1: endogenous Flightless homolog 1 (Fli1) of Min6 cells (protein, UniProt Q9JJ28 1-1271)
# chain: MEATGVLPFVRGVDLSGNDFKGGYFPENVKAMTSLRWLKLNRTGLCYLPEELAALQKLEHLSVSHNHLTTLHGELSSLPSLRAIVARANSLKNSGVPDDIFKLDDLSVLDLSHNQLTECPRELENAKNMLVLNLSHNGIDSIPNQLFINLTDLLYLDLSENRLESLPPQMRRLVHLQTLVLNGNPLLHAQLRQLPAMMALQTLHLRNTQRTQSNLPTSLEGLSNLSDVDLSCNDLTRVPECLYTLPSLRRLNLSSNQIAELSLCIDQWVHLETLNLSRNQLTSLPSAICKLTKLKKLYLNSNKLDFDGLPSGIGKLTSLEEFMAANNNLELIPESLCRCPKLKKLVLNKNRLVTLPEAIHFLTEIQVLDVRENPSLVMPPKPADRTAEWYNIDFSLQNQLRLAGASPATVAAAAAVGSGSKDPLARKMRLRRRKDSAQDVQAKQVLKGMSDVAQEKNKNQEESIDARAPGGKVRRWDQGLEKPRLDYSEFFTEDVGQLPGLTIWQIENFVPVLVEEAFHGKFYEADCYIVLKTFLDDSGSLNWEIYYWIGGEATLDKKACSAIHAVNLRNYLGAECRTVREEMGDESEEFLQVFDNDISYIEGGTASGFYTVEDTHYVTRMYRVYGKKNIKLEPVPLKGSSLDPRFVFLLDQGLDIYVWRGAQATLSNTTKARLFAEKINKNERKGKAEITLLVQGQEPPGFWDVLGGEPSEIKNHVPDDFWPPQPKLYKVGLGLGYLELPQINYKLSVEHKKRPKVELMPGMRLLQSLLDTRCVYILDCWSDVFIWLGRKSPRLVRAAALKLGQELCGMLHRPRHTVVSRSLEGTEAQVFKAKFKNWDDVLTVDYTRNAEAVLQGQGLSGKVKRDTEKTDQMKADLTALFLPRQPPMPLAEAEQLMEEWNEDLDGMEGFVLEGRKFTRLPEEEFGHFYTQDCYVFLCRYWVPVEYEEEEKTEDKEGKASAEAREGEEAAAEAEEKQPEEDFQCIVYFWQGREASNMGWLTFTFSLQKKFESLFPGKLEVVRMTQQQENPKFLSHFKRKFIIHRGKRKVTQGTLQPTLYQIRTNGSALCTRCIQINTDSSLLNSEFCFILKVPFESEDNQGIVYAWVGRASDPDEAKLAEDILNTMFDASYSKQVINEGEEPENFFWVGIGAQKPYDDDAEYMKHTRLFRCSNEKGYFAVTEKCSDFCQDDLADDDIMLLDNGQEVYMWVGTQTSQVEIKLSLKACQVYIQHTRSKEHERPRRLRLVRKGNEQRAFTRCFHAWSTFRQAPA
# What was measured:
# [1] = target: T1, Flag-TRB3 (expressed in Min6 cells); test: affinity purification with mass spectrometry; Flag-TRB3 (adenovirus) or HA-TRB3 (lentivirus) in Min6 pseudoislets; anti-Flag or anti-HA agarose 4 h; NEHN buffer (150 mM NaCl, 0.5 mM EDTA, 20 mM Hepes pH 7.8, 0.5% NP-40); GFP adenovirus or RFP lentivirus as control; LC-MS/MS of tryptic digests
# Myc-APEX2-TRB3 = target: T2, Myc-APEX2-TRB3; test: proximity labelling; APEX2-TRB3 in Min6 cells; biotin-phenol (2 mM biotin-tyramide) 2 h, 0.5 mM H2O2 for 1 min; streptavidin-agarose pull-down, blot for Fli1; without or with IL1β for 30 min
Molecule,binding [1],binding (Myc-APEX2-TRB3)
endogenous LRRFIP2 (leucine-rich repeat Flightless interacting protein) of Min6 cells (from UniProt Q91WK0 1-415),binds,–
B1,binds,binds
